Measurements reported in doi:10.1101/2020.06.06.138156 (bioRxiv, 2020).
These are yes or no findings as the source states them, for the method shown. In cells and extracts the contact can be indirect. Some binding calls cover weakened binding; strength is not graded here. Sequences can lack the tags named with a protein.

T1: Halo-SETD2C (1404-2564) (human) (UniProt Q9BYW2)
T1 sequence: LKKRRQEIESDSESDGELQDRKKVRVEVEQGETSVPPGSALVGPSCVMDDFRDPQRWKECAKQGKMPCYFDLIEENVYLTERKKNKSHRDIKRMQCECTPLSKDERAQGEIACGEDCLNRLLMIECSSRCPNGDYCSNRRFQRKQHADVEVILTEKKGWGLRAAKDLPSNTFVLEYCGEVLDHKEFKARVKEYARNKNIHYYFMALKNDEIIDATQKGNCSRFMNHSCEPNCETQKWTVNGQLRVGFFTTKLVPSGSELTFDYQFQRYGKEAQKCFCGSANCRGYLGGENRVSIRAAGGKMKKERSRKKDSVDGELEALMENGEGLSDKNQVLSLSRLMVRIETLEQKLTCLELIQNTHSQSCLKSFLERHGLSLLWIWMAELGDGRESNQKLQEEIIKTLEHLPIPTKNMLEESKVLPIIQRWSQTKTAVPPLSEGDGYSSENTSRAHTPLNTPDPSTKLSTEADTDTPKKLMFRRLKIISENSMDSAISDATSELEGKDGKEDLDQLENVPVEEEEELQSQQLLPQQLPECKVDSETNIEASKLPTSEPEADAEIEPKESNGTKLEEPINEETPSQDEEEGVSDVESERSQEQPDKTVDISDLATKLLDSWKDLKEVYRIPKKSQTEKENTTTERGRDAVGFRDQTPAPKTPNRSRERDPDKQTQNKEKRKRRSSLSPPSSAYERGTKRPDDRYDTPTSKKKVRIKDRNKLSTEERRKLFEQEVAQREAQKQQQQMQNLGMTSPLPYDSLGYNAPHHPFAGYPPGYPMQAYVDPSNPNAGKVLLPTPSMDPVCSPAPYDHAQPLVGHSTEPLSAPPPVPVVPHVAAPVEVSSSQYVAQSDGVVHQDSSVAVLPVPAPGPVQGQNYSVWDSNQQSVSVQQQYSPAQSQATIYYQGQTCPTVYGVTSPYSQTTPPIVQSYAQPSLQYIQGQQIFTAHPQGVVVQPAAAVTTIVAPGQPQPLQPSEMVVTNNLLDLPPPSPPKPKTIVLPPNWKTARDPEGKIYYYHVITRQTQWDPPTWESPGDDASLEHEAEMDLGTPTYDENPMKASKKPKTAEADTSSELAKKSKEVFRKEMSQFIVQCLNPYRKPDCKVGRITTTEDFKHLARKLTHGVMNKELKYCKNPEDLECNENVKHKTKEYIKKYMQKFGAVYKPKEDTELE


What follows are binders tested against T1, Halo-SETD2C (1404-2564) (human) (assay: pull-down).

| binding | Binder |
| --- | --- |
| no binding | mCherry-HA-hnRNP L 322-589 (domain or fragment, UniProt P14866 322-589) GGYHSHYHDEGYGPPPPHYEGRRMGPPVGGHRRGPSRYGPQYGHPPPPPPPPEYGPHADSPVLMVYGLDQSKMNCDRVFNVFCLYGNVEKVKFMKSKPGAAMVEMADGYAVDRAITHLNNNFMFGQKLNVCVSKQPAIMPGQSYGLEDGSCSYKDFSESRNNRFSTPEQAAKNRIQHPSNVLHFFNAPLEVTEENFFEICDELGVKRPSSVKVFSGKSERSSSGLLEWESKSDALETLGFLNHYQMKNPNGPYPYTLKLCFSTAQHAS |
| no binding | mCherry-HA-hnRNP L 96-161 (domain or fragment, UniProt P14866 96-161) HKTPASPVVHIRGLIDGVVEADLVEALQEFGPISYVVVMPKKRQALVEFEDVLGACNAVNYAADNQ |
| binds | mCherry-HA-hnRNP L 162-321 (domain or fragment, UniProt P14866 162-321) IYIAGHPAFVNYSTSQKISRPGDSDDSRSVNSVLLFTILNPIYSITTDVLYTICNPCGPVQRIVIFRKNGVQAMVEFDSVQSAQRAKASLNGADIYSGCCTLKIEYAKPTRLNVFKNDQDTWDYTNPNLSGQGDPGSNPNKRQRQPPLLGDHPAEYGGPH |
| binds | mCherry-HA-hnRNP L full-length (1-589) (protein, UniProt P14866 1-589) MSRRLLPRAEKRRRRLEQRQQPDEQRRRSGAMVKMAAAGGGGGGGRYYGGGSEGGRAPKRLKTDNAGDQHGGGGGGGGGAGAAGGGGGGENYDDPHKTPASPVVHIRGLIDGVVEADLVEALQEFGPISYVVVMPKKRQALVEFEDVLGACNAVNYAADNQIYIAGHPAFVNYSTSQKISRPGDSDDSRSVNSVLLFTILNPIYSITTDVLYTICNPCGPVQRIVIFRKNGVQAMVEFDSVQSAQRAKASLNGADIYSGCCTLKIEYAKPTRLNVFKNDQDTWDYTNPNLSGQGDPGSNPNKRQRQPPLLGDHPAEYGGPHGGYHSHYHDEGYGPPPPHYEGRRMGPPVGGHRRGPSRYGPQYGHPPPPPPPPEYGPHADSPVLMVYGLDQSKMNCDRVFNVFCLYGNVEKVKFMKSKPGAAMVEMADGYAVDRAITHLNNNFMFGQKLNVCVSKQPAIMPGQSYGLEDGSCSYKDFSESRNNRFSTPEQAAKNRIQHPSNVLHFFNAPLEVTEENFFEICDELGVKRPSSVKVFSGKSERSSSGLLEWESKSDALETLGFLNHYQMKNPNGPYPYTLKLCFSTAQHAS |

The remaining lines, values behind:

| Binder | binding |
| --- | --- |
| mCherry-HA-hnRNP L 1-321 (domain or fragment, UniProt P14866 1-321) MSRRLLPRAEKRRRRLEQRQQPDEQRRRSGAMVKMAAAGGGGGGGRYYGGGSEGGRAPKRLKTDNAGDQHGGGGGGGGGAGAAGGGGGGENYDDPHKTPASPVVHIRGLIDGVVEADLVEALQEFGPISYVVVMPKKRQALVEFEDVLGACNAVNYAADNQIYIAGHPAFVNYSTSQKISRPGDSDDSRSVNSVLLFTILNPIYSITTDVLYTICNPCGPVQRIVIFRKNGVQAMVEFDSVQSAQRAKASLNGADIYSGCCTLKIEYAKPTRLNVFKNDQDTWDYTNPNLSGQGDPGSNPNKRQRQPPLLGDHPAEYGGPH | binds |
| mCherry-HA-hnRNP L 1-161 (domain or fragment, UniProt P14866 1-161) MSRRLLPRAEKRRRRLEQRQQPDEQRRRSGAMVKMAAAGGGGGGGRYYGGGSEGGRAPKRLKTDNAGDQHGGGGGGGGGAGAAGGGGGGENYDDPHKTPASPVVHIRGLIDGVVEADLVEALQEFGPISYVVVMPKKRQALVEFEDVLGACNAVNYAADNQ | no binding |
| mCherry-HA-hnRNP L 1-95 (domain or fragment, UniProt P14866 1-95) MSRRLLPRAEKRRRRLEQRQQPDEQRRRSGAMVKMAAAGGGGGGGRYYGGGSEGGRAPKRLKTDNAGDQHGGGGGGGGGAGAAGGGGGGENYDDP | no binding |
